Source: paper PMC8495200
Results are given in words; binding and its absence hold for the method and conditions named. In cells and extracts the contact can be indirect. These calls come from enrichment with a bait or labelling near it, and not all partners need be listed. Where a sequence is shown, tags or fusion partners need not be part of it.

Protein sequences, listed by entry. Tags and fused reporters are not part of them. Lines headed by an entry give the natural chain unless they say otherwise; changes in a name come on top.
UniProt Q54X06: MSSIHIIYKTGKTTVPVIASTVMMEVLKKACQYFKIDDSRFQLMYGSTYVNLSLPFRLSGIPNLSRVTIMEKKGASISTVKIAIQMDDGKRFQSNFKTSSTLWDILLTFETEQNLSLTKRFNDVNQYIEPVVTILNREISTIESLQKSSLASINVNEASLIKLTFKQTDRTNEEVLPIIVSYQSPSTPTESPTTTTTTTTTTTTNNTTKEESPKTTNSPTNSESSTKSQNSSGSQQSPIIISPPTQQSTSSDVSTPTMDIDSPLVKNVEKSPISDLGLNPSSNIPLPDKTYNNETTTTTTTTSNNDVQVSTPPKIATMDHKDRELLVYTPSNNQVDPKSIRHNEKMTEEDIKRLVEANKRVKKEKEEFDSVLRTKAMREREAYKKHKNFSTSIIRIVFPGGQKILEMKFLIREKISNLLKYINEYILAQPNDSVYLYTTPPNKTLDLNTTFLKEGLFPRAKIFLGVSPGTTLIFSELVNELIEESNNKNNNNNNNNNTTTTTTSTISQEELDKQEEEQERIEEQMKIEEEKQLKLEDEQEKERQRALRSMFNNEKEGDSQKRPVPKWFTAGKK

What was measured:
[1] = target: GFP-UBXD9 (N-terminally tagged UBXD9) (D. discoideum); test: affinity purification with mass spectrometry; GFP-trap beads, soluble proteins of AX2 cells expressing UBXD9-GFP or GFP-UBXD9 against AX2/GFP; four replicates, fold change > 1.4 and p < 0.05
[2] = target: UBXD9-GFP (C-terminally tagged UBXD9) (D. discoideum) (UniProt Q54X06); test: as above

Row | Binder | binding [1] | binding [2]
1 | Bifunctional purine biosynthesis protein (enzyme, UniProt Q86L14 1-542) MQALLSVYNKSGIVEFSKILSSKGFNLISTGGTAKSLVDNGLKVQQVSDVTEYPEMLDGRVKTLHPKIHGGLLARPELAHHQADLNKYNIKPISIVVVNLYPFVETVSKESTTLEEAIENIDIGGHTLIRASSKNFQNVLIIVDPSDYKWIGERIQSSTDSTNVLSSITLEERKKLALKAFQHGCSYDAAVSQYLSKVELTNATTIQGVKGTDSASVNVEFPQTFLPLYEKKNDLRYGENPHQKAALYQCPGTGGIANAQLLHGPALSYNNILDGDAALKAVREFDRCACVVIKHTNPCGLSVGVNDSEQAEVYKRAFNGDPKSAYGGILGFNRTLTLETATALKSVFYEVIIAPDYTEDALALLSKKEKLRILRIPEAANQIQFTQPDIRTITGGALLQSPNPIIRGDLAEATKNWKVVTENKPTEQQMKDLLFAWRVSKHVKSNAIVLSKDETIVAIGAGQPNRSQSVDICMKVGGDKVKGSVLASDAFFPFADSIDLAHQGNIACIVQPGGSIRDQEVIDAANKYGIPMVFTGNRNFLH | binds | binds
2 | Hisactophilin-1 (protein, UniProt P13231 1-118) MGNRAFKSHHGHFLSAEGEAVKTHHGHHDHHTHFHVENHGGKVALKTHCGKYLSIGDHKQVYLSHHLHGDHSLFHLEHHGGKVSIKGHHHHYISADHHGHVSTKEHHDHDTTFEEIII | binds | binds
3 | Phosphoenolpyruvate carboxykinase (enzyme, UniProt Q75JD5 1-562) MNQAVAESINKSLKSSTADYTPKGYHITELESDSIYLDEHFSGNAKIFHNPAVAVLYEQALAFEHGSAITSTGALVTRSGVKTGRSPKDKRIVKEPSSQDDIWWGPVNIAMDDLSFMINRERAIDYLNTQEKIYVIDGYAGWDPKYRIKVRVICARAYHALFMHNMLIRPANREELRNFGEPDYTIYNAGQFPANRYTKGMSSSSSIAIDFARKEMVILGTQYAGEMKKGILTIMMYLMPKMGVLPLHSSCNQARNNGDTTLFFGLSGTGKTTLSADINRELIGDDEHVWTDTGCFNIEGGCYAKCIDLSREKEPEIFDAIKFGAVLENVVYNEYSRKVDYNDVSITENTRCAYPLEHIPNAKFPAIAGHPKNIIMLTCDAFGILPPVSRLDANQVMYHFIQGYTAKVAGTEVGVTEPTATFSSCYGEPFIVWHPTKYAEMLASQLHKHSARAWLINTGWTGGSHGVGSRIKLAYTRAIIDAIHSGELEKIPTTKMDVFGFQVPNSCPGVPSEILMPINGWADKEKYVSTMHKLAKLFIENFKKFQDKASPELVAAGPILPQ | binds | binds
4 | 60S ribosomal protein L36 (protein, UniProt Q55AQ9 1-105) MSSAATKPVKRSGIIKGFNKGHAVAKRTVTSTFKKQVVTKRVAAIRDVIREISGFSPYERRVSELLKSGLDKRALKVAKKRLGSIQAGKKKRDDIANINRKASAK | binds | binds
5 | Probable replication factor C subunit 3 (protein, UniProt Q54BN3 1-347) MLWIDKYKPTSLDKMDYHNDISINLKNMIKSGDFPHLLVYGPSGAGKKTRILAVLQEIYGPNALKLKIDHRTFKHPTSSKNIQITTISSHYHIEINPGEAGSYDRVVIQTIIKEIAQSPPIDSGSLGAFKIVILNEVDKLSKDAQHALRRTMEKYATFCRLILCCDSTAKVIDPIKSRCLGIRVPAPSQEEIEKVLAKVATAEKFDLPSKLAVNVAKQSGGNLRYALMLLESQKAKQYPFQSTELPLLDWENYISQIVKDCFEEQSPARLSIVRGKLYELLGHCIPPELIFKTLLLEIFKKLDHNMKFEIIHWASYYEHRSQIGSKPIFHLEAFIAKFMSVYKKYNQ | binds | binds
6 | Putative rho GDI 1 (protein, UniProt Q95UQ1 1-197) MSDNHEEESNVPAYVPGKHVSVDQLKQQDAEDEALKRYKESLLGTGVHAPKDDPRKLVIKEMKIQIEGRPDTIYPLDTKELIKEMKTKPFVLKESCHYKITLTFNIQHDIVSGLKQTNTVYRKGIKVSTEKHMLGSFAPQALAHSVTNPRHGWEEAPSGMLARGSYTAKVVFTDDDNEEHLSVEYAFSIKSDWKSDD | binds | binds
7 | Probable pyridoxal 5-phosphate synthase subunit pdx1 (enzyme, UniProt Q54J47 1-305) MENLTENQATNNNSPFRIKSSLAQMLKGGVIMDVVTPEQARIAEEAGACAVMALEKIPADIRHFGGVARMSDPGMIKEIMNAVTIPVMAKVRIGHFVEAQILQEIGVDYIDESEVLTIADNENHIDKSEFKVPFVCGCRNLGEALRRISEGAAMIRTKGEAGTGDVVEAVRHARAVNKEIKKIQNMDPHELYTYAKEIQAPLELVKEVKRLGRLPVVNFAAGGVATPADAAMMMQLGMDGVFVGSGIFKSGDPAKRAKAIVQAVTHFNNPQIVAKVSENLGEAMVGINVDTLKDKENQNWSTKEK | binds | binds
8 | Vacuolar protein sorting-associated protein 29 (protein, UniProt Q54IF7 1-183) MFIIAIGDVHVPHRSYGIPPEFKKLLVPEKIQHILCTGNLVSKEIHDYFKVLTSDVHIVRGDLDENTSYPDTKIVSIGQFKFGLCHGHQIVPWGDRASLAALQRQLDVDVLISGHTHVLEVFESNGKLFVNPGSATGAFSNISNDVIPSFVLMDVQSNNITVYIYKLIDGQVKVEKIDHVKQQ | binds | binds
9 | Small aggregate formation protein (protein, UniProt P54661 1-283) MEEIKETVEKKNKEKKYLNDYKIISEGNNIKVLQKKDFKPKFSLVSYKNYEQNFDFENAKIVSTNFAIDRHIKMKNPPDPFVFIKMPSSKLVQSQLKLYYENEGYKDIPVWITPCSAFMRYIKSYPIVGTVTETMEKKKGFTNRFLSTSETKASVSVGFFGCESSMEVTSGYEYEDTVTSEETRSWSQTLNEGSYIVYQNVLVYAYIIYGGSYKPYIDQMNKFNPGLNIKFFREDKCIFFVPINRDDAFTLRYQDNTWDPVEYDVLIDYLGQNQDKWFSGGLP | binds | binds
10 | Vacuolin-A (protein, UniProt O15706 1-598) MIEGSGSKTPKRNSDEISVKSLSIHEANTLSSEHEHESGNEELTLSQIVIRSDFANESSERQSKIILDRFNQGIGKNSAFTDSPALGRGLSRVDVSYFVMGHRNQVAELYDPRGQRFSTVLTPDPTVNIKYVGPVSKTAHYFGAYGKHVLNVPAGHYAKAFSKNRPVLYGEGPHVIIDPTFQFDENNGFVNQQEPFIEHSTINILRIPAGKIAKVWIGTQPHILESRRDPYVFVDAQFKLVSPDGAKKAQLFESSSCTFVEHGSIKRIIPHTGEVAITYNNGILTIIPTPKDGKPVIIDSPTHNFEGFISTSLQTCLFPSKETKQQALADNKSALADEINLKIFQTRDSLRVGVVLVVAFKIVDPELAITKLGKEGIINHIENVSFADMGKAIQLSTLQEIMYFNSIKPGQATNDDSVQTIQDRVKSHLARDLFDYGVELSRLQIETMKVLDTEIAKKLAGQSVTSAEFTTKQATLVKEYDIKTTEARLKAETDNIALEQRNKAIISESQAKLSSAQREAESLLITAEAQKKASELQGELYTKYPILAEIELARIKAEALKNATLYITPQDAGAFMNSPLVYFDKMMNANNTIQQKKN | binds | binds
11 | Dynamin-A (protein, UniProt Q94464 1-853) MDQLIPVINKLQDVFNTLGSDPLDLPQIVVVGSQSSGKSSVLENIVGRDFLPRGSGIVTRRPLILQLTHLPIADDGSQTQEWGEFLHKPNDMFYDFSEIREEIIRDTDRMTGKNKGISAQPINLKIYSPHVVNLTLVDLPGITKVPVGDQPTDIEQQIRRMVMAYIKKQNAIIVAVTPANTDLANSDALQLAKEVDPEGKRTIGVITKLDLMDKGTDAMEVLTGRVIPLTLGFIGVINRSQEDIIAKKSIRESLKSEILYFKNHPIYKSIANRSGTAYLSKTLNKLLMFHIRDTLPDLKVKVSKMLSDVQGELSTYGDPLYDTKNSQGALLLQIITIFSSNFKDAIDGKLTDLSNNELYGGARISYIFNEIYSHCVNNIDPLEGISLNDIRTTMRNATGPRAALFIPEISFELLVKKQVVRLEEPSAQCVEYVYDELQRIVSQLEAKELSRFINLKARVIEVVNNLLQKHKVPTKTMIEHLIKIETAFINTSHPDFVGGEGIFESLYKKQQLQQQNHLQQLQDQYQQQQQQQQQQQQQNGINNNQKGDNGNMNVNQQNMNQQNMNQQNQSTNPFLQQQQQGQNKYPGGPPAQQQPNQQPNQLNKGPQNMPPNQSKPSSIPQNGPNNNNNNNNNNNRQDHQQGSFFSSFFRASPDPSLGQYGGANNSNNSNNPTSPINSSSNSGNNYNTFGGQQSSSSSSQQLQQSSQSQYKTSYNNNNNSSSNNSSYNRYQDDFYGRGDKLNQVPSIIKAPDDLTSKEKFETELIRELLISYFNIVKKNVKDSVPKSIMHFLVNQSKEHIQNELVAALYKEELFDELLEESPQISSKRKSCKAMIEILRKANEIINEIRDFRN | binds | binds
12 | LIM domain-containing protein E (protein, UniProt O60952 1-199) MSASVKCGACAKTAYPLESVVANNNSYHKGCFKCSTCNSTLNVKTFKSFEGKLYCPVHTPKVSATAVTDSVALKNALNAPKKVAEGLGNAHRGLDEKPNIGLDSMATANALNAPKKVVEGLGNVQKGIGGKPTYAVFGADGQPTGEQQEQQQYTEEQYEQPQEEQQYQEEQQQYQEEEQQYQEEEQQYQEEEQQYEEEQ | binds | binds
13 | Vacuolar proton translocating ATPase 100 kDa subunit (protein, UniProt Q54E04 1-815) MSFLRPSIWRSSPMQMVQLFVQIEAAHDTVDELGKLGLIQFLDDNEHVNLFQRNFVNEVKRCDDMEKKLKFFEDQVKKEPKLQKLLPDNMLSVVDDDSQMDELEGRFDELESELKQVNANQETLQRNYNELIQLRHVLTKDSVFFQENPNLIEGEGHEHSARSPLLAEDQHVSEVAKQGVKLGFITGVMNTDKMPQFQRSLWRTTRGNNYVKDARIEEEIIDPQTGEETAKTVFIVFFQGERLQQKIKKICESFGANIYDCPDNSFERSNLLQKVTVRITDLYEVLQRSKDHKRQTLAGIVPRLYSWKKKVLLEKSIYHTMNLFDYDVGRKCLIAKGWTPKDKIEEIQLALRTATTRSGALVPSVLSIIKTEGSPPTHFETNKYTSSFQEIVNAYGIAHYREVNPAVLTIVTFPFLFGVMFGDVGHGALLLLSALGLISLEKKLAGKKLNELIQMPFDGRYVLFLMSLFSIYVGFIYNECFSIPMNIFGSQYNLNSTTGLYTYQHTDRVYPVGVDPLWKGAPNELVYYNSFKMKLSIIFGVVQMSVGICFSLLNYLNQKGPIKIVNILTQFVPQMIFLWSIFGYMSVLIILKWVVPYRSFEVDKVDPPFILPTIIAMFLSPGGTPDVVFFSGQGAVQTALLFLALISIPVMLVIKPLFMKRFHFQEVERKKLGHHEEEHDDEALYTGHHGEEFEMGEVFVHQVIHTIEFVLGAVSNTASYLRLWALSLAHSELSSVFWERILIGQVERGNPFLAFVGFGAWLGASVAVLLLMESLSAFLHALRLHWVEFQNKFYIGDGVRFIPYSATRILSEDDE | binds | binds
